Among the data in PMC7504119 are binding values, retold here.

Amino acid sequences for entries named in this document (tags omitted). Residues count along the entry.
UniProt O60260: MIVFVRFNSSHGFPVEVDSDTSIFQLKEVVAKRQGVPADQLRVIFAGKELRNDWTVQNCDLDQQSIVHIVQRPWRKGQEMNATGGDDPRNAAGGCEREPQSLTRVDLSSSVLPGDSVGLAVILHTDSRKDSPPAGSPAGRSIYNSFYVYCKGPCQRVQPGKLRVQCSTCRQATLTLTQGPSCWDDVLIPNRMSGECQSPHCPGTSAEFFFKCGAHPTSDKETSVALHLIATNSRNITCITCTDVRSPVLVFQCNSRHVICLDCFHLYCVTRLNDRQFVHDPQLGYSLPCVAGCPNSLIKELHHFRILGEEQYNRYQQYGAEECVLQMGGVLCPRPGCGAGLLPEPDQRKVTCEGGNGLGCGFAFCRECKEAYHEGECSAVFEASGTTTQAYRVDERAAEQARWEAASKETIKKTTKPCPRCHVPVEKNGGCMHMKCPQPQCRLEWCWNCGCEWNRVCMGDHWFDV
UniProt P25705, residues 44-553: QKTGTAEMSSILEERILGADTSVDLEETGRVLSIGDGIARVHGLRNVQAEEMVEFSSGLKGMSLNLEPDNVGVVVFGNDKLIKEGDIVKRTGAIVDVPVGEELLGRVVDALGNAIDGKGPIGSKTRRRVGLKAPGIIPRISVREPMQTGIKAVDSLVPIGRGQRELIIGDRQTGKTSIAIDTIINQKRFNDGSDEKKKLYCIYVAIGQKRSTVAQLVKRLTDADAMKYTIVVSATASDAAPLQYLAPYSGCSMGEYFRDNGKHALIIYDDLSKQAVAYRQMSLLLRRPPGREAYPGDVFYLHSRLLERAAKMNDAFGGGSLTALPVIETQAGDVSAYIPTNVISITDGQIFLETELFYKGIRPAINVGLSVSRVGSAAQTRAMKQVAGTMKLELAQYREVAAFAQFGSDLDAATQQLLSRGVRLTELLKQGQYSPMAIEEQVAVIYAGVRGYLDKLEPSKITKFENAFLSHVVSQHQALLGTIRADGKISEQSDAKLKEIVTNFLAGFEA

Assay [1] has as its target T1, FLAG-tagged wild-type human Sestrin2 (SESN2^ABC) (human) (UniProt P58004).
T1 sequence: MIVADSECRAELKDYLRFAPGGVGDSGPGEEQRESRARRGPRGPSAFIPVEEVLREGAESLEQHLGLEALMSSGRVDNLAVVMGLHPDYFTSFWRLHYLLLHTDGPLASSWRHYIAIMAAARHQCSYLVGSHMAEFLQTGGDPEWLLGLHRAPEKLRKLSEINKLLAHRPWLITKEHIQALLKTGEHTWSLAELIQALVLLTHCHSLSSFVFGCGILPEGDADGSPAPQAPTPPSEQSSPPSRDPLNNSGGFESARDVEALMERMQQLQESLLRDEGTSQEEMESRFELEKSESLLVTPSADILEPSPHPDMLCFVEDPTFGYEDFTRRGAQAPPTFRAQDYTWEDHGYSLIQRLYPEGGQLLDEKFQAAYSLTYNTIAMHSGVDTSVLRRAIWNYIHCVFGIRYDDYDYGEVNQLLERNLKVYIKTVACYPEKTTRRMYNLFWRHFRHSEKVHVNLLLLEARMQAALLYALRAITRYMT
As to the kind of experiment: co-IP; HEK293 co-transfected with FLAG-tagged Sestrin2 (WT or truncated) and HA-tagged ATP5A or HA-Parkin; IP with FLAG-conjugated beads, lysis buffer with 0.3% CHAPS, immunoblot with HA antibody.

The target in assay [2] is T2, FLAG-tagged C-terminal domain (CTD) of Sestrin2 (SESN-C, AA 339-480) (human) (UniProt P58004).
T2 sequence: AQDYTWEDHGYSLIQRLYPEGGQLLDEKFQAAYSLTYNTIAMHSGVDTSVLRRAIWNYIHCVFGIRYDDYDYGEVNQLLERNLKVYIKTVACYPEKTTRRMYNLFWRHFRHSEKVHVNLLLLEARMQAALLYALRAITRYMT
The description is as above.

These are yes or no findings as the source states them, for the method shown. In cells and extracts the contact can be indirect. Some results given as binding are weak or reduced against the parent protein; the word gives no strength. Where a sequence is shown, tags or fusion partners need not be part of it.

For the substance HA-Parkin (from UniProt O60260 1-465), in assay [1], the binding entry is on record as “no binding”.

“HA-tagged human ATP5A (from UniProt P25705 44-553)”: the binding entry in assay [2] and in assay [1] was “binds” each time.
